Laboratory results as given in the supplement of paper PMC6078165.
The reference is the same well before dosing, and untreated signal decays as well.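 Fibroblast labels name human fibroblasts: mostly primary ones from tissues such as uterus (C12385, HUF), lung (H6013), bone (Hs27A), adrenal (HADF) and skin (WS1), plus mammary HMF and breast cancer-associated Hs343T. The cancer cells are basal-like or mesenchymal-like triple-negative breast cancer lines. The paper calls a changed response a hit when it shifts by more than 3x the replicate standard deviation. The tissue of the other fibroblasts is not given here.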

Tested on: BT20
Assay: relative JC-1 red fluorescence (viability) vs pre-drug, coculture with fibroblast (fraction); higher = more viable cancer cells
Description: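 JC-1 labelled TNBC cells cocultured 1:1 (1,500 cells each) with CellTrace Violet stained primary or stromal fibroblasts in 384-well plates in FluoroBrite medium, treated with one of 42 anticancer drugs at 0.1, 1, 10 or 100 uM. JC-1 red fluorescence (mitochondrial integrity in cancer cells only) was read by plate reader every 8 h for 72 h. Values are normalised to each well's pre-drug value. The stock of one drug was tenfold lower, so its dose labels may be too high.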

CC[C@]1(O)C[C@H]2CN(CCc3c([nH]c4ccccc34)[C@@](C(=O)OC)(c3cc4c(cc3OC)N(C=O)[C@H]3[C@@](O)(C(=O)OC)[C@H](OC(C)=O)[C@]5(CC)C=CCN6CC[C@]43[C@@H]65)C2)C1 [Vincristine]
relative JC-1 red fluorescence
Details | 8 h | 16 h | 24 h | 32 h | 40 h | 48 h | 56 h | 64 h | 72 h
0.1 µM, coculture fibroblast: C12385 | 0.875 | 0.844 | 0.838 | 0.797 | 0.761 | 0.752 | 0.753 | 0.778 | 0.795
0.1 µM, coculture fibroblast: H6013 | 0.944 | 0.955 | 0.882 | 0.892 | 0.9098 | 0.873 | 0.933 | 0.81 | 0.779
0.1 µM, coculture fibroblast: H6019 | 0.874 | 0.816 | 0.823 | 0.771 | 0.727 | 0.722 | 0.704 | 0.688 | 0.673
0.1 µM, coculture fibroblast: H6076 | 0.925 | 0.941 | 0.887 | 0.882 | 0.878 | 0.884 | 0.895 | 0.919 | 0.923
0.1 µM, coculture fibroblast: H6231 | 0.963 | 0.887 | 0.814 | 0.759 | 0.75 | 0.727 | 0.711 | 0.711 | 0.712
0.1 µM, coculture fibroblast: HADF | 0.945 | 0.917 | 0.939 | 0.9169 | 0.906 | 0.8855 | 0.92339 | 0.942 | 0.9397
0.1 µM, coculture fibroblast: HCFa | 0.941 | 0.901 | 0.891 | 0.85 | 0.821 | 0.805 | 0.8 | 0.778 | 0.732
0.1 µM, coculture fibroblast: HCPF | 0.973 | 0.907 | 0.847 | 0.813 | 0.796 | 0.752 | 0.751 | 0.765 | 0.761
0.1 µM, coculture fibroblast: HHSteC | 0.947 | 0.916 | 0.899 | 0.814 | 0.785 | 0.772 | 0.764 | 0.762 | 0.748
0.1 µM, coculture fibroblast: HMF | 0.915 | 0.884 | 0.779 | 0.732 | 0.684 | 0.645 | 0.653 | 0.646 | 0.664
0.1 µM, coculture fibroblast: HPFa | 0.921 | 0.822 | 0.779 | 0.859 | 0.854 | 0.838 | 0.834 | 0.836 | 0.82
0.1 µM, coculture fibroblast: HUF | 0.874 | 0.775 | 0.72736 | 0.65 | 0.605 | 0.564 | 0.548 | 0.544 | 0.537
0.1 µM, coculture fibroblast: Hs5 | 0.936 | 0.9222 | 0.8914 | 0.874 | 0.85861 | 0.847 | 0.863 | 0.857 | 0.8689
0.1 µM, coculture fibroblast: Hs27A | 0.752 | 0.763 | 0.961 | 0.948 | 0.916 | 0.912 | 0.935 | 0.929 | 0.924
0.1 µM, coculture fibroblast: Hs343T | 0.922 | 0.831 | 0.744 | 0.694 | 0.665 | 0.641 | 0.616 | 0.612 | 0.5996
0.1 µM, coculture fibroblast: WS1 | 0.865 | 0.816 | 0.789 | 0.731 | 0.678 | 0.652 | 0.631 | 0.623 | 0.634
1 µM, coculture fibroblast: C12385 | 0.903 | 0.8529 | 0.781 | 0.72 | 0.658 | 0.627 | 0.582 | 0.549 | 0.535
1 µM, coculture fibroblast: H6013 | 0.812 | 0.952 | 0.87 | 0.856 | 0.8261 | 0.8216 | 0.81 | 0.789 | 0.7909
1 µM, coculture fibroblast: H6019 | 0.8672 | 0.8259 | 0.7843 | 0.741 | 0.709 | 0.701 | 0.675 | 0.662 | 0.655
1 µM, coculture fibroblast: H6076 | 0.9901 | 0.917 | 0.8291 | 0.812 | 0.786 | 0.758 | 0.752 | 0.762 | 0.75
1 µM, coculture fibroblast: H6231 | 0.788 | 0.9271 | 0.806 | 0.717 | 0.659 | 0.591 | 0.584 | 0.547 | 0.534
1 µM, coculture fibroblast: HADF | 0.818 | 0.857 | 0.856 | 0.804 | 0.734 | 0.672 | 0.631 | 0.603 | 0.569
1 µM, coculture fibroblast: HCFa | 0.954 | 0.912 | 0.833 | 0.773 | 0.72 | 0.676 | 0.647 | 0.624 | 0.589
1 µM, coculture fibroblast: HCPF | 0.801 | 0.966 | 0.877 | 0.827 | 0.7557 | 0.701 | 0.646 | 0.628 | 0.6007
1 µM, coculture fibroblast: HHSteC | 0.9507 | 0.8752 | 0.861 | 0.795 | 0.736 | 0.707 | 0.692 | 0.674 | 0.6371
1 µM, coculture fibroblast: HMF | 0.858 | 0.927 | 0.775 | 0.71 | 0.6579 | 0.605 | 0.555 | 0.529 | 0.5013
1 µM, coculture fibroblast: HPFa | 0.9465 | 0.933 | 0.926 | 0.8368 | 0.837 | 0.775 | 0.767 | 0.751 | 0.715
1 µM, coculture fibroblast: HUF | 0.9116 | 0.816 | 0.745 | 0.675 | 0.623 | 0.566 | 0.519 | 0.496 | 0.479
1 µM, coculture fibroblast: Hs5 | 0.718 | 0.971 | 0.85 | 0.7843 | 0.7211 | 0.672 | 0.641 | 0.598 | 0.5797
1 µM, coculture fibroblast: Hs27A | 0.82508 | 0.795 | 0.9483 | 0.886 | 0.955 | 0.926 | 0.903 | 0.872 | 0.83
1 µM, coculture fibroblast: Hs343T | 0.908 | 0.936 | 0.793 | 0.73 | 0.67 | 0.618 | 0.557 | 0.537 | 0.509
1 µM, coculture fibroblast: WS1 | 0.907 | 0.859 | 0.799 | 0.737 | 0.691 | 0.656 | 0.62 | 0.59 | 0.5787
